A short description of the assay: qHTS Assay for Lipid Storage Modulators in Drosophila S3 Cells.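 As to cell number change: cells counted by Cell Tracker Red CMTPX staining in the red channel.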 The note with it: BODIPY lipid droplet fluorescence, 18-24 h; for cell number change: measured here: cell count max response, cells fed with added oleic acid. In a few lines: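 Drosophila S3 cells got compounds at several concentrations plus oleic acid (400 uM solution). Laser-scanning cytometry with 488 nm excitation read lipid droplets at 500-530 nm and cells at 575-640 nm. Percent activity was relative to 20 uM Triacsin C.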
In general terms: qHTS replaces the single test concentration by a dilution series.

[1] abbreviates: measured here: lipid fluorescence (Fed channel) AC50, cells fed with added oleic acid.
Setting [2] is: measured here: cell number channel AC50, cells fed with added oleic acid.

The structures appear in SMILES notation. Some of the results follow. Further columns of the screen follow, without active or inactive calls. The list favours compounds with an active or inconclusive main result. Words in brackets tell the shape of the fitted curve; partial curves, single points and poor fits give uncertain potencies.

One may read the AC50 as the concentration at which the activity in the assay is half-maximal. As to `C/C(=N\NC(=O)c1ccco1)c1ccc(C(=O)O)s1`, the cell number change was -15.6%. Moreover, the AC50 under setting [1] was 0.116 µM [rising, full curve, poor fit].
`O=C(O)c1ccccc1C(=O)O`: the cell number change turned out to be 22.6%. Further, under setting [1], the half-maximal activity concentration (AC50) was 0.0517 µM [rising, partial curve, poor fit].
Take `COc1ccc2[nH]c(C)c(C(=O)CN(C)CC3OCCO3)c2c1`: the cell number change was 15.5%. Besides, under setting [2], the AC50 is 0.326 µM [rising, partial curve, poor fit]. In addition, the AC50 under setting [1] was 1.46 µM [rising, partial curve].
`C/C(=N/NC(=O)CN1CCN(S(=O)(=O)c2ccc(C)cc2)CC1)c1ccco1`: the cell number change was 39.7%. For the same compound, under setting [2], the AC50 was 29.1 µM [rising, single point]. Moreover, the AC50 under setting [1] was 32.6 µM [rising, single point].
On to `Cc1nc(-c2nnc(SCC(=O)Nc3ccc(C(F)(F)F)cc3)n2C)cs1`, for which the cell number change turned out to be 24.3%.
As to `O=C(NNC(=O)c1cc2ccccc2oc1=O)c1ccccc1[N+](=O)[O-]`, the cell number change came out at 27.8%. Under setting [1], the AC50 was 0.708 µM [rising, full curve, poor fit].
Consider `COc1ccc(CC(=O)OCC(=O)Nc2c(C)n(C)n(-c3ccccc3)c2=O)cc1`, for which the cell number change stood at 5.3%.
With `CC1CCN(C(=O)COC(=O)c2n[nH]c(=O)c3ccccc23)CC1`, the cell number change was determined as 28.2%. Further, the AC50 under setting [1] is 0.517 µM [rising, full curve].
With `CCNC(=S)N(CCCN(C)C)Cc1cc2cc3c(cc2[nH]c1=O)OCCO3`, the cell number change is -6.2%. For the same compound, the AC50 under setting [1] was 3.66 µM [rising, partial curve, poor fit].
Take `CC(C)(C)CC(=O)N1CCC(c2nc3c(nnn3Cc3c(F)cccc3Cl)c(=O)[nH]2)CC1`: the cell number change is -12%. Also, under setting [1], the AC50 is 4.61 µM [rising, full curve].
As to `CC(C)(O)C#Cc1ccc(C(=O)N2CCN(c3ccc([N+](=O)[O-])cc3)CC2)cc1`, the cell number change was determined as 7.38%. Also, the AC50 under setting [1] was 0.00461 µM [rising, full curve, poor fit].
For `O=C(COC(=O)c1ccccc1OCC(=O)Nc1ccc(Br)cc1)Nc1ccccc1`, the cell number change is 5.33%. Further, the AC50 under setting [1] is 2.59 µM [rising, single point].
On to `O=C(NNC(=S)Nc1ccc(Cl)cc1Cl)c1cccnc1`, for which the cell number change is 3.55%. For the same compound, the AC50 under setting [1] was 29.1 µM [rising, single point].
Take `COc1ccc(NC2CCCN(C(=O)c3cccc(C(F)(F)F)c3)C2)cc1OC` (stereo unspecified): the cell number change was -10.7%. For the same compound, the half-maximal activity concentration (AC50) under setting [2] was 6.51 µM [falling, single point].
In the case of `N#Cc1c(NC(=O)CN2CCN(S(=O)(=O)c3ccc4c(c3)OCCO4)CC2)sc2c1CCC2`, the cell number change was found to be 15.2%. Besides, under setting [1], the AC50 was 2.31 µM [falling, partial curve].
Regarding `c1coc(CNc2nc3ccccc3s2)c1`, the cell number change was 25.6%. The concentration at half-maximal activity (AC50) under setting [1] was 10.3 µM [rising, single point].
As to `C/C(=N\NC(=O)c1ccccc1Cl)c1ccccn1`, the cell number change is -4.72%. For the same compound, under setting [1], the AC50 was 8.2 µM [falling, partial curve].
In the case of `COC(=O)Nc1cc([N+](=O)[O-])ccc1OC`, the cell number change is 6.51%. The AC50 under setting [2] is 4.11 µM [falling, partial curve, poor fit]. The AC50 under setting [1] is 0.0651 µM [rising, full curve, poor fit].
With `CCC(C)(C)C1CCc2nc3ccccc3c(C(=O)OC(C)C(=O)Nc3c(C)n(C)n(-c4ccccc4)c3=O)c2C1` (stereo unspecified), the cell number change came to 13%. In addition, under setting [2], the AC50 was 0.461 µM [falling, single point]. Further, the AC50 under setting [1] was 0.731 µM [falling, single point].
`CCOC(=O)COc1ccc(/C=C/[N+](=O)[O-])c(OCC(=O)OCC)c1`: the cell number change was -41.8%. Besides, the concentration at half-maximal activity (AC50) under setting [2] was 20.6 µM [falling, single point]. Further, under setting [1], the AC50 was 18.4 µM [falling, partial curve].
In the case of `Cc1ccc(-c2csc3nnc(SCC(=O)Nc4nsc(-c5ccccc5)n4)n23)cc1`, the cell number change is 120%. Moreover, under setting [2], the AC50 was 2.59 µM [rising, partial curve]. For the same compound, under setting [1], the half-maximal activity concentration (AC50) is 0.259 µM [rising, full curve, poor fit].
Regarding `CN1CCC(OC(=O)C23CCC(C)(C(=O)O2)C3(C)C)CC1` (stereo unspecified), the cell number change is 1.19%. Moreover, under setting [1], the AC50 is 29.1 µM [falling, single point].
With `CN1CCC2(CC1)N=C(c1ccc(F)cc1)C(=S)N2C(=O)c1ccc(C(C)(C)C)cc1`, the cell number change was -65.1%. In addition, under setting [2], the AC50 was 13 µM [falling, partial curve]. Moreover, the AC50 under setting [1] is 11.6 µM [falling, partial curve].
For `CC1(C)CC(=O)C(CC(=O)Nc2ccc(S(N)(=O)=O)cc2)=C(O)C1`, the cell number change is -26.9%.
For the compound `CNC(=O)/C(C#N)=C/c1c(N(Cc2ccccc2)Cc2ccccc2)nc2ccccn2c1=O`, the cell number change was -11.5%. Also, the AC50 under setting [1] was 29.1 µM [falling, single point].
In the case of `COCCn1c(SCc2cccc(F)c2)nc2cc(C(=O)OC)ccc2c1=O`, the cell number change turned out to be 8.15%. Also, under setting [1], the concentration at half-maximal activity (AC50) is 6.51 µM [falling, single point].
`CCN(CC)S(=O)(=O)c1ccc(O)c(NS(=O)(=O)c2ccccc2F)c1`: the cell number change came out at 10.9%.
With `COc1cc(NC(=O)C2CC(c3c(F)cccc3Cl)=NO2)cc(OC)c1OC` (stereo unspecified), the half-maximal activity concentration (AC50) under setting [1] is 14.6 µM [falling, partial curve].
For `COc1ccccc1NS(=O)(=O)c1cccc(C(=O)OCc2nc3ccccc3s2)c1`, the cell number change turned out to be 5.91%. Also, the AC50 under setting [1] was 0.92 µM [rising, single point].
Consider `CN(C)C(=O)c1cn(-c2ccccc2)nc1-c1cc2ccccc2o1`, for which the cell number change was found to be 32.6%. Also, under setting [2], the AC50 was 29.1 µM [rising, single point]. Also, the AC50 under setting [1] was 29.1 µM [rising, single point].
As to `COCCn1c(SCC(=O)Nc2ccc(S(N)(=O)=O)cc2)nc2ccccc21`, the cell number change was found to be 40.7%. Besides, the AC50 under setting [1] is 18.4 µM [rising, single point].
As to `COc1c(O)cc2c(c1O)C1OC(CO)C(O)C(O)C1OC2=O` (stereo unspecified), the cell number change was -35%. Further, under setting [2], the AC50 was 23.1 µM [falling, single point]. The AC50 under setting [1] is 0.731 µM [falling, single point].
On to `O=C(Cc1ccc(Cl)cc1)Oc1cccc2cccnc12`, for which the cell number change is 28.4%. Also, under setting [1], the AC50 is 1.03 µM [rising, full curve].
In the case of `O=C(c1cc(-c2cccc(Cl)c2)nc2ccccc12)N1CCN(c2ccccn2)CC1`, the cell number change stood at 35.1%. The AC50 under setting [2] is 20 µM [rising, single point]. Under setting [1], the half-maximal activity concentration (AC50) is 7.94 µM [rising, partial curve].
`CCOc1ccc(NC(=S)NC(C)c2cccs2)cc1` (stereo unspecified): the AC50 under setting [2] was 0.092 µM [falling, partial curve, poor fit].
`CCC(C)(C)NC(=O)CN(Cc1ccc2c(c1)OCO2)C(=O)CCC(=O)Nc1cc(C)ccn1`: the cell number change was -7.69%.
With `CCOC(=O)N1CCN(c2ccc(Cl)cc2)CC1`, the cell number change amounted to 13.8%. Further, under setting [1], the AC50 was 7.31 µM [rising, partial curve, poor fit].
As to `Cn1c(=O)[nH]c(=O)c2c1nc(Sc1nc3ccccc3s1)n2Cc1ccccc1`, the cell number change is -10.1%. Moreover, the half-maximal activity concentration (AC50) under setting [1] was 1.3 µM [rising, full curve].
`Cc1ccc(CNS(=O)(=O)c2cc(F)ccc2CN2C(=O)c3cccnc3C2=O)o1`: the cell number change was -1.53%. For the same compound, the AC50 under setting [1] was 0.58 µM [falling, single point].
With `COc1ccc(NC(=O)CN(C)C(=O)c2cc(C)on2)cc1`, the cell number change was -10.2%. For the same compound, the concentration at half-maximal activity (AC50) under setting [2] is 0.13 µM [falling, full curve, poor fit]. Also, the AC50 under setting [1] was 6.51 µM [falling, single point].
With `COc1ccc(NC(=O)C2CCCN(S(=O)(=O)c3c(C)n[nH]c3C)C2)c(OC)c1` (stereo unspecified), the cell number change was -21.8%. Also, the AC50 under setting [1] is 0.291 µM [falling, full curve, poor fit].
Consider `CC(C)C(=O)OC1CCS(=O)(=O)c2sccc21` (stereo unspecified), for which the cell number change is -6.69%. In addition, under setting [1], the AC50 was 3.26 µM [rising, single point].
For `Cc1cc(NC(=O)CCN2C(=O)C3C4CCC(C4)C3C2=O)c(C)cc1Br` (stereo unspecified), the cell number change is -14.3%. The AC50 under setting [1] was 18.4 µM [falling, single point].
Regarding `Cc1ccccc1-n1c(SCC(=O)c2cc(C)n(C)c2C)nnc1-c1cccnc1`, the cell number change is 90.6%. Under setting [2], the AC50 is 0.0731 µM [rising, full curve, poor fit]. Besides, under setting [1], the AC50 is 1.16 µM [rising, full curve].
On to `Cc1cccc(-n2c(C)c(C)c3c(N)ncnc32)c1`, for which the cell number change was -2.25%. For the same compound, under setting [2], the AC50 was 0.82 µM [rising, single point]. For the same compound, under setting [1], the AC50 was 29.1 µM [falling, single point].
Consider `Cc1cccc(/C=C/c2nc3ccccc3c(=O)n2Cc2ccccc2)c1`, for which the cell number change was -27.7%. Moreover, under setting [1], the AC50 was 29.1 µM [falling, single point].
`COc1cc(NC(=O)c2nn(C)c3c2CS(=O)(=O)c2ccccc2-3)cc(OC)c1`: the cell number change was -17%. Moreover, the AC50 under setting [1] is 18.4 µM [falling, single point].
Consider `O=C(O)CCCCCNC(=O)c1ccc(Br)cc1`, for which the cell number change is -77.9%. Moreover, the AC50 under setting [2] is 13 µM [falling, partial curve]. Also, the concentration at half-maximal activity (AC50) under setting [1] was 1.64 µM [falling, partial curve].
Consider `CCc1ccc(S(=O)(=O)NCc2cccnc2)cc1`, for which the cell number change is -18.5%. Besides, the AC50 under setting [1] was 0.82 µM [rising, single point].
Consider `O=S(=O)(Nc1cccc(-c2ccc3nncn3n2)c1)c1ccc(Cl)s1`, for which the cell number change was 33.5%. Moreover, the concentration at half-maximal activity (AC50) under setting [2] is 29.1 µM [rising, single point].
As for `COc1cc(OC)cc(-c2c(C#Cc3ccsc3)c3cc(-c4ccc(C(N)=O)cc4)ccc3n2C)c1`, the cell number change was -18.5%.
As to `Cc1ccc(-c2nc(SC(C)C(=O)c3c(N)n(C)c(=O)n(C)c3=O)n[nH]2)cc1` (stereo unspecified), the AC50 under setting [2] was 6.51 µM [rising, single point].
Turning to `CCOc1ccc(NC(=O)COC(=O)c2ncc(Cl)c(Cl)c2Cl)cc1`, the cell number change was -17.2%.
`O=C(CCc1nc(-c2ccccc2F)no1)NCc1ccco1`: the cell number change came out at 12.4%. The AC50 under setting [2] is 0.206 µM [falling, full curve, poor fit]. Further, the AC50 under setting [1] was 0.231 µM [falling, full curve].
`Cc1ccc(C(=O)Nc2ccc3ncccc3c2)cc1`: the cell number change stood at 15.6%. Besides, under setting [2], the concentration at half-maximal activity (AC50) was 3.66 µM [rising, partial curve].
In the case of `COc1ccc(NC(=O)COC(=O)C2CC(=O)N(Cc3ccc(C)cc3)C2)cc1` (stereo unspecified), the AC50 under setting [1] is 3.26 µM [falling, partial curve].

Values taken from PubChem BioAssay AID2685 (National Center for Advancing Translational Sciences (NCATS), 2010).
